One substance from PMC6718539 can be followed below.

Chains of the proteins cited; added tags and fusions are not shown.
UniProt P49841: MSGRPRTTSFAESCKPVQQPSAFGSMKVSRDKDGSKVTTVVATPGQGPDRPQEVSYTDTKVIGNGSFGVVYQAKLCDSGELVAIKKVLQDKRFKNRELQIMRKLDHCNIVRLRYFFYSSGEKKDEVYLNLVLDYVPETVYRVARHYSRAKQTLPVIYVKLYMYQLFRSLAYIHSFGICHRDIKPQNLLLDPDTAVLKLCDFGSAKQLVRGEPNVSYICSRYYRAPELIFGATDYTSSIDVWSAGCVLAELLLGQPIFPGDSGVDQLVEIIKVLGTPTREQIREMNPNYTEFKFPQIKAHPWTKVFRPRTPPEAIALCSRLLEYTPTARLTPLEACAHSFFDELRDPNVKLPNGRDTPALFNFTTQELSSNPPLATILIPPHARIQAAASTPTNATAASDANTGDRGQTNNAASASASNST

This assay has as its target T1, Mycoplasma hyorhinis major membrane protein p37 (Mycoplasma hyorhinis) (UniProt P15363).
T1 sequence: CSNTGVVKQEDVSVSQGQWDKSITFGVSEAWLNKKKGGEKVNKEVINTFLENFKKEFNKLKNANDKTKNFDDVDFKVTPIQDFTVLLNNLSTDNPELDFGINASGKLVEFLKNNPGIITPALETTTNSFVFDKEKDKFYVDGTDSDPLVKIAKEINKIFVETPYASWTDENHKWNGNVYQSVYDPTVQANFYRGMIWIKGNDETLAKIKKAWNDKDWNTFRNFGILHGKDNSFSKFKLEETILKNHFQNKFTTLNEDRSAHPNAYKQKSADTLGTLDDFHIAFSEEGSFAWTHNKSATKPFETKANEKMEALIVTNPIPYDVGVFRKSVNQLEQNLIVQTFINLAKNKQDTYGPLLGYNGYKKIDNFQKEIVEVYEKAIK
The assay can be described thus: co-IP; lysates (500 μg) from M hyorhinis-infected gastric cancer cells immunoprecipitated with 1 μg of PD4 antibody (anti-p37) or pre-immune IgG; input 50 μg of lysates; Western blot for LRP6 and GSK3β. (Immunoblotting shows a protein as a band on a membrane.)

These are yes or no findings as the source states them, for the method shown. In cells and extracts the contact can be indirect. Some binding calls cover weakened binding; strength is not graded here. Sequences can lack the tags named with a protein.

As to “GSK3β (from UniProt P49841 1-420) (enzyme)”, the binding result is recorded as “binds”.
